Assay results: PubChem BioAssay AID2551 (National Center for Advancing Translational Sciences (NCATS), 2010)
In all, about 310,000 compounds went through this assay and about 17,000 (5.5%) were called active. Inconclusive means that the source gave no clear call. Such entries were picked first, then a sample of the others. The call rests on the fitted dose curve; in most records, active means well fitted inhibition curve with a large enough effect; inconclusive means small, poorly fitted or top-dose-only effect, or effect the other way; inactive means no such curve, though single readings can be large or run the other way. Potencies of inconclusive entries are doubtful fits and often do not repeat. The source holds several records for some structures; these can differ, active in one and inactive in another.

Amino acid sequences for entries named in this document (tags omitted).
UniProt P51450, whole entry: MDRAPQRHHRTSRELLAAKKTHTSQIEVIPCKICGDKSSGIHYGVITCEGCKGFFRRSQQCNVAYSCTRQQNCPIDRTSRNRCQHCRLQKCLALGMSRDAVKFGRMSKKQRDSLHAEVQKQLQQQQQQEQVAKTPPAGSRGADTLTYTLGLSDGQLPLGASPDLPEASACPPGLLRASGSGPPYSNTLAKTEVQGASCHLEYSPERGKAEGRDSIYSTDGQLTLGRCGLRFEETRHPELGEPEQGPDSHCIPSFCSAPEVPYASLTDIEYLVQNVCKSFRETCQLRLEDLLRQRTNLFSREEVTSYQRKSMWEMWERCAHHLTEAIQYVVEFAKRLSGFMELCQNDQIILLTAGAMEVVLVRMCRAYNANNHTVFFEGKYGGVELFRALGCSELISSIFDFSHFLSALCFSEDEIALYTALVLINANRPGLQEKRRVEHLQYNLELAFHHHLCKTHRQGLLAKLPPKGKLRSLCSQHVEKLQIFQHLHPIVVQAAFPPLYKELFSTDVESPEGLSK

target: Nuclear receptor ROR-gamma (Mus musculus) (UniProt P51450); assay: qHTS for inhibitors of ROR gamma transcriptional activity; conditions: Drosophila S2 Gal4-RORgamma UAS-luciferase reporter, 20 h; activity change, negative = inhibition: at 53.6 µM (top of the series); further: nearly all actives have a fitted effect of over 60% in size
Outline: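 In this cell-based reporter format, copper sulfate (700 uM final) drives Gal4–ROR gamma fusion expression from a metallothionein promoter in Drosophila Schneider cells; compounds preincubated 1 hr, reporter read after 20 hr at ambient temperature.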
On the % scale 0 is the no-effect control and ±100 the full control effect; potency means the concentration at half of the fitted maximal effect.

SMILES	Potency	activity change, negative = inhibition
Cc1cccn2c(NCC3CCCO3)c(C(C)C)nc12 (stereo not drawn)	inconclusive: 35.5 µM [inhibitor, single point]	–
CC(C)Nc1ccc(Nc2ccccc2)cc1	inconclusive: 35.5 µM [inhibitor, single point]	–
O=C(CC1CCCCC1)N1CCC(c2nc(-c3ccc(S(=O)(=O)N4CCCC4)cc3)no2)CC1	inconclusive: 12.6 µM [activator, single point]	–
O=S(=O)(c1ccc(Cl)cc1Cl)N1CCCC1c1cccnc1 (stereo not drawn)	inconclusive: 12.6 µM [inhibitor, single point]	–
Brc1ccccc1Cn1c(-c2cncs2)nc2ccccc21	active: 6.31 µM	–
CC(=O)OC1CCC2(/C=N/O)C(=CCC3C4CCC(=O)C4(C)CCC32)C1 (stereo not drawn)	inconclusive: 1.26 µM [inhibitor, single point]	–
Oc1cccc[c]1[Hg][Cl]	active: 1.58 µM	–
O=c1[nH]c(=S)[nH]c(O)c1N=Nc1ccc2c(c1)OCCO2	–	inactive: -26.9%
Cc1c(C(=O)N2CCC3(CC2)OCCO3)oc2ccccc12	–	inactive: -7.72%
COc1ccc2[nH]c3c(c2c1)CCN=C3C	–	inactive: -27.8% [at 16.9 µM]
CN(C)c1ccc(C(O)P(=O)(OC2CCCCC2)OC2CCCCC2)cc1 (stereo not drawn)	inconclusive: 20 µM [inhibitor, single point]	–
CCOc1cc(CNC(C)C(O)c2ccccc2)cc(Cl)c1OCC (stereo not drawn)	inconclusive: 11.2 µM [activator, partial curve]	–
Cc1ncc2n1-c1ccc(Cl)cc1C(c1ccccc1F)=NC2O (stereo not drawn)	–	inactive: -44.4%
Cc1ccc(-n2c(O)c(/C=C3/C(c4ccccc4)=Nc4ccccc43)c(=O)[nH]c2=O)cc1	inconclusive: 35.5 µM [activator, single point]	–
CCCCCCn1c(=O)c(C(=O)Nc2c(C)n(C)n(-c3ccccc3)c2=O)c(O)c2ccccc21	–	inactive: 1.55%
O=C(c1sc2ccccc2c1Cl)N1CCC2(CC1)OCCO2	inconclusive: 6.31 µM [activator, partial curve, poor fit]	–
CC(C)[C@@]1(NC(=O)[C@@H]2C[C@@H]3c4cccc5[nH]cc(c45)C[C@H]3N(C)C2)O[C@@]2(O)[C@@H]3CCCN3C(=O)[C@H](Cc3ccccc3)N2C1=O	active: 2.82 µM	–
Cc1cccc(NC(=O)CSc2ccc(-c3ccco3)nn2)c1	inconclusive: 7.94 µM [activator, partial curve, poor fit]	–
Cc1c(C(=O)Nc2ccccc2)cc(-c2ccccc2)n1CCCN1CCOCC1	–	inactive: 20.3%
C[C@@H]1C[C@H](C)C[C@H](C)[C@@H](O)CC(=O)O[C@H]([C@H]2CCC[C@H]2C(=O)O)C/C=C/C=C(/C#N)[C@H](O)[C@@H](C)C1	active: 0.0282 µM	–
COc1cc2c(cc1OC)C(C(=O)NCCC(C)C)C1CCCCN1C2=O (stereo not drawn)	–	inactive: -7.84%
COC(=O)C(O)(c1ccc(NC(=O)c2cccs2)cc1)C(F)(F)F (stereo not drawn)	inconclusive: 11.2 µM [activator, partial curve]	–
Cn1cccc1CNCCc1ccc(F)cc1	inconclusive: 2.24 µM [activator, single point]	–
Cc1ccccc1N1C(=O)CC(=O)N(c2ccccc2C)C1=O	–	inactive: 0.686%

Quoted at random: 2 compounds from above
SMILES	Potency	activity change, negative = inhibition
Brc1ccccc1Cn1c(-c2cncs2)nc2ccccc21	active: 6.31 µM	–
C[C@@H]1C[C@H](C)C[C@H](C)[C@@H](O)CC(=O)O[C@H]([C@H]2CCC[C@H]2C(=O)O)C/C=C/C=C(/C#N)[C@H](O)[C@@H](C)C1	active: 0.0282 µM	–

Remaining list, next part

SMILES	Potency	activity change, negative = inhibition
O=C(N/N=C/c1cccc([N+](=O)[O-])c1)c1cnccn1	inconclusive: 15.8 µM [activator, partial curve, poor fit]	–
CCc1ccc(N2C(=O)NC(=O)/C(=C/c3ccsc3)C2=O)cc1	–	inactive: 0.566%
CN(C)C(=Nc1ccccc1)P(=S)(N(C)C)N(C)C	active: 10 µM	–
CC[C@]1(O)CC(O[C@@H]2CC(N(C)C)C(O)C(C)O2)c2c(cc3c(c2O)C(=O)c2c(O)ccc(O)c2C3=O)C1C(=O)OC (stereo partly drawn)	active: 1.12 µM	–
C/C(=N\N1CCCCCC1)c1c(O)n(-c2ccc(C)cc2)c(=O)[nH]c1=O	inconclusive: 14.1 µM [activator, partial curve]	–
CC12CCC3C(CC=C4CC5(CCC43C)OCCO5)C1CCC2=O (stereo not drawn)	–	inactive: -26.4%
CCCCC(=O)N/N=C/c1c(O)n(CC)c(=S)n(CC)c1=O	active: 2 µM	–
CC(C)n1cc(C(=O)N(CC(=O)NC(C)(C)C)Cc2ccccc2)cn1	inconclusive: 3.55 µM [activator, single point]	–
C[n+]1c2cc(N)ccc2cc2ccc(N)cc21	inconclusive: 35.5 µM [inhibitor, single point]	–
CCCCCOc1ccc(C)cc1CN(CCCl)CCCl	inconclusive: 14.1 µM [inhibitor, single point]	–
COc1ccc(/C=C2/C(=O)NC(=O)N(Cc3ccco3)C2=O)cc1	–	inactive: 7.56%
Cc1ccc(C(=O)Nc2nc3ccccc3[nH]2)cc1	active: 2.51 µM	–
CCCCCn1c(=O)c(C(=O)Nc2cnccn2)c(O)c2ccccc21	–	inactive: 3.96%
O=C1NC(=O)N(c2ccccc2)C(=O)/C1=C/c1ccc(Sc2ccccc2)o1	–	inactive: 20.6%
CCOC(=O)c1c(NC(=O)c2c(N)n(CCCOC)c3nc4ccccc4nc23)sc2c1CCCC2	inconclusive: 35.5 µM [inhibitor, single point]	–
CC/C(=N\NC(=O)c1ccccc1O)c1c(O)n(C2CCCCC2)c(=O)[nH]c1=O	active: 2.51 µM	–
Clc1ccccc1Cl	inconclusive: 0.0032 µM [inhibitor, full curve, poor fit]	–
c1ccc2c(N3CCNCC3)nsc2c1	–	inactive: 0.0795%
C[C@]12CC[C@H]3[C@@H](CC[C@@]45O[C@@H]4C(=O)C(C#N)C[C@]35C)[C@@H]1CC[C@@H]2O (stereo partly drawn)	inconclusive: 11.2 µM [activator, partial curve]	–
O=C(N/N=C/c1c(O)n(Cc2ccc(F)cc2)c(=S)[nH]c1=O)c1ccncc1	inconclusive: 10 µM [inhibitor, partial curve]	–
CCOC(=O)CN1C(=O)CC(C[C@@H](O)C2C[C@@H](C)C[C@H](C)C2=O)CC1=O (stereo partly drawn)	–	inactive: -3.04%
Nc1ccc([N+](=O)[O-])cc1N	–	inactive: 7.25%
COc1ccccc1-c1n[nH]c(=S)n1Cc1ccco1	inconclusive: 14.1 µM [inhibitor, single point]	–
CCOC(=O)c1c(-n2c(C)cc(C=C3C(=O)NC(=S)NC3=O)c2C)sc2c1CCCC2	active: 12.6 µM	–
